Data as given in PubChem BioAssay AID1508588 (Peter MacCallum Cancer Centre, 2020).
Purpose: 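Knock-downs boosting vemurafenib effects on melanoma cell growth or lactate release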 (primary screen). System: human WM266.4 melanoma cells (BRAF V600 mutant). Reagent: siRNA pool against human genes, 40 nM. Timing: 96 h from transfection to read-out. Challenge: vemurafenib 300 nM (about IC25), added 48 h after transfection, for 48 h; comparison arm got DMSO vehicle only. Detection: 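Cell gain (DAPI nuclei at end minus before drug, mean of two replicates) and medium lactate by absorbance per cell, both as ratio to non-targeting siRNA, also grouped into fold-change classes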. Direction: cell gain with vemurafenib: higher = more cell gain than with non-targeting siRNA; lactate per cell with vemurafenib: higher = more lactate made per cell. Active means: 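Enhancement is called by pairing each knock-down's vehicle-arm and drug-arm fold-change classes for viability or glycolysis; which class combinations qualify is not given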. Calls: active = enhances vemurafenib effect; inactive = no enhancement seen.
Here is one part, drawn at random, of about 18,000 reagents tested. 790 of them (4.4%) were called active. 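Calls rest on a combination of fold-change classes in drug and vehicle arms, not all shown here.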 Entries without a mark were called inactive. Reagents against one gene are numbered here. Some reagents were tested in more than one well and are listed for each.

| gene | reagent | cell gain with vemurafenib | lactate per cell with vemurafenib |
| --- | --- | --- | --- |
| MIA2 (MIA SH3 domain ER export factor 2) | 1 | 0.2 | 1.2 |
| MIA2 (MIA SH3 domain ER export factor 2) | 2 | 1.05 | 0.73 |
| HLF (HLF transcription factor, PAR bZIP family member) | 1 | 0.19 (active) | 0.67 |
| HACL2 (2-hydroxyacyl-CoA lyase 2) | 1 | 0.22 | 0.97 |
| XRCC4 (X-ray repair cross complementing 4) | 1 | 0.88 | 0.73 |
| POP5 (POP5 ribonuclease P/MRP subunit) | 1 | 0.91 | 0.94 |
| PTGDS (prostaglandin D2 synthase) | 1 | 0.51 | 2 |
| HNRNPA3 (heterogeneous nuclear ribonucleoprotein A3) | 1 | 0.83 | 0.66 |
| P4HA3 (prolyl 4-hydroxylase subunit alpha 3) | 1 | 0.48 | 1.31 |
| MSMP (microseminoprotein, prostate associated) | 1 | 1.06 (active) | 0.47 |
| NFYA (nuclear transcription factor Y subunit alpha) | 1 | 0.4 | 1.43 |
| CTPS1 (CTP synthase 1) | 1 | 0.71 | 0.98 |
| RAB32 (RAB32, member RAS oncogene family) | 1 | 0.53 | 0.74 |
| CATIP (ciliogenesis associated TTC17 interacting protein) | 1 | 1.11 | 0.66 |
| SLC4A2 | 1 | 0.62 | 0.96 |
| GCLM (glutamate-cysteine ligase modifier subunit) | 1 | 1.22 | 0.9 |
| ZNF337 (zinc finger protein 337) | 1 | 0.68 | 1.36 |
| SLC22A12 | 1 | 0.88 | 0.83 |
| OR14J1 (olfactory receptor family 14 subfamily J member 1) | 1 | 0.53 | 1.27 |
| IL9R (interleukin 9 receptor) | 1 | 0.25 | 0.48 |
| OR8G2P (olfactory receptor family 8 subfamily G member 2 pseudogene) | 1 | 0.93 | 0.96 |
| VPS35L (VPS35 endosomal protein sorting factor like) | 1 | 0.51 | 1.74 |
| ZNF267 (zinc finger protein 267) | 1 | 0 | 0 |
| SGCZ (sarcoglycan zeta) | 1 | 0.63 | 0.87 |
| PLD2 (phospholipase D2) | 1 | 0.74 | 0.8 |
| PIP4P1 (phosphatidylinositol-4,5-bisphosphate 4-phosphatase 1) | 1 | 0.67 | 0.78 |
| PRDM4 (PR/SET domain 4) | 1 | 0.85 | 1.29 |
| NMNAT2 (nicotinamide nucleotide adenylyltransferase 2) | 1 | 0.68 | 1.33 |
| LOC644006 (ring finger protein 4 pseudogene) | 1 | 1.08 | 0.7 |
| LOC644006 (ring finger protein 4 pseudogene) | 1 | 0.5 | 0.92 |
| CD164 (CD164 molecule) | 1 | 0.62 (active) | 0.18 |
| RNF19A (ring finger protein 19A, RBR E3 ubiquitin protein ligase) | 1 | 0.41 | 0.94 |
| COG1 (component of oligomeric golgi complex 1) | 1 | 0.69 | 1.36 |
| PRKD1 (protein kinase D1) | 1 | 0.51 | 0.52 |
| NEURL1 (neuralized E3 ubiquitin protein ligase 1) | 1 | 0.8 | 0.52 |
| DSPP (dentin sialophosphoprotein) | 1 | 0.08 | 0.88 |
| NTN1 (netrin 1) | 1 | -0.05 | 2.01 |
| KRTAP10-5 (keratin associated protein 10-5) | 1 | 0.62 | 0.29 |
| ACOX1 (acyl-CoA oxidase 1) | 1 | 0.85 (active) | 0.66 |
| LY6S-AS1 (LY6S antisense RNA 1) | 1 | -0.02 | 2.12 |
| PIK3CG | 1 | 0.33 | 1.11 |
| ERG (ETS transcription factor ERG) | 1 | 0.73 | 0.75 |
| SCO2 (synthesis of cytochrome C oxidase 2) | 1 | 0.64 | 0.62 |
| WHR1 (winged helix repair factor 1) | 1 | 0.47 | 1.16 |
| GPBP1L1 (GC-rich promoter binding protein 1 like 1) | 1 | 0.16 | 0.89 |
| KRI1 (KRI1 homolog) | 1 | 0.78 | 1.06 |
| CFAP95 (cilia and flagella associated protein 95) | 1 | 0.84 | 0.53 |
| CHTF18 (chromosome transmission fidelity factor 18) | 1 | 0.72 | 1.18 |
| POGLUT1 (protein O-glucosyltransferase 1) | 1 | 0.15 | 1.86 |
| FANCB (FA complementation group B) | 1 | 0.18 | 2.09 |
| FAM217B (family with sequence similarity 217 member B) | 1 | 0.51 (active) | 0.13 |
| SERPINA9 (serpin family A member 9) | 1 | 0.65 | 1.28 |
| MEX3B (mex-3 RNA binding family member B) | 1 | 1.08 | 1.02 |
| HPN (hepsin) | 1 | 0.49 | 2.05 |
| MRPL47 (mitochondrial ribosomal protein L47) | 1 | 0.52 | 0.89 |
| VWF (von Willebrand factor) | 1 | 0.68 | 1.04 |
| TMEM135 (transmembrane protein 135) | 1 | 0.22 | 1.09 |

6 neighbouring entries already listed, for reference:
| gene | reagent | cell gain with vemurafenib | lactate per cell with vemurafenib |
| --- | --- | --- | --- |
| NTN1 (netrin 1) | 1 | -0.05 | 2.01 |
| KRTAP10-5 (keratin associated protein 10-5) | 1 | 0.62 | 0.29 |
| ACOX1 (acyl-CoA oxidase 1) | 1 | 0.85 (active) | 0.66 |
| LY6S-AS1 (LY6S antisense RNA 1) | 1 | -0.02 | 2.12 |
| PIK3CG | 1 | 0.33 | 1.11 |
| ERG (ETS transcription factor ERG) | 1 | 0.73 | 0.75 |
